PubChem BioAssay AID504808 | Drosophila RNAi Screening Center – 2011

Purpose: 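Fly genes required to hold E2F transcription in check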 (primary screen)
System: Drosophila S2 cells
Reagents: long dsRNA against Drosophila genes
Measurement: 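Firefly luciferase driven by E2F sites, normalised to Renilla luciferase on the same minimal promoter, measured by plate reader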
Reading the numbers: E2F firefly: higher = more E2F reporter activity; Renilla normaliser: higher = more normaliser reporter signal
Active means: 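a knock-down counted as active when the firefly/Renilla E2F signal rose above 50%, a threshold chosen arbitrarily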
The deposit covers about 21,000 reagents; this is an unselected part of those with a known target gene and a result. In the full data, 18 (0.084%) are marked active. 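Raw counts without plate normalisation, one of two replicates; the ratio scores behind the calls were not deposited.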 Entries without a mark were called inactive. No sequences are given here. Not given: the amount of reagent, the time to read-out.

CG43163 [DRSC10745]: E2F firefly, rep 1 = 96023; Renilla normaliser, rep 1 = 4101
CG43163 [DRSC10748]: E2F firefly, rep 1 = 96520; Renilla normaliser, rep 1 = 4442
nesd (nessun dorma) [DRSC02099]: E2F firefly, rep 1 = 88338; Renilla normaliser, rep 1 = 3755
CG17027 [DRSC10238]: E2F firefly, rep 1 = 80276; Renilla normaliser, rep 1 = 3928
tst (twister) [DRSC14212]: E2F firefly, rep 1 = 70803; Renilla normaliser, rep 1 = 3669
CG18294 [DRSC09891]: E2F firefly, rep 1 = 1.45e5; Renilla normaliser, rep 1 = 6406
spin (spinster) [DRSC07176]: E2F firefly, rep 1 = 74427; Renilla normaliser, rep 1 = 4041
CG8461 [DRSC16424]: E2F firefly, rep 1 = 82492; Renilla normaliser, rep 1 = 3344
mura (murashka) [DRSC16483]: E2F firefly, rep 1 = 1.18e5; Renilla normaliser, rep 1 = 6154
mura (murashka) [DRSC16484]: E2F firefly, rep 1 = 73215; Renilla normaliser, rep 1 = 4719
CG6845 [DRSC08576]: E2F firefly, rep 1 = 86189; Renilla normaliser, rep 1 = 4166
CG15461 [DRSC20532]: E2F firefly, rep 1 = 1.40e5; Renilla normaliser, rep 1 = 6653

2 consecutive entries from above, quoted:
mura (murashka) [DRSC16484]: E2F firefly, rep 1 = 73215; Renilla normaliser, rep 1 = 4719
CG6845 [DRSC08576]: E2F firefly, rep 1 = 86189; Renilla normaliser, rep 1 = 4166
